Results taken from PubChem BioAssay AID651640 (Broad Institute, 2012).
The campaign covered roughly 350,000 compounds. About 6,000 (1.7%) were called active. The shares of active, inactive and inconclusive entries below differ from those in the screen. No stated cut-off is given here; in the data, active means CPE inhibition above about 20% (passing the limit was not always enough); inconclusive means no clear call, values can overlap the other calls; tested in BHK-21 cells.

experiment: protection of cells from dengue 2 killing – plate reader, single concentration, primary screen (AID 651640); conditions: DENV2-infected cells, cytopathic effect rescue, at 9.99 µM, stronger effect = higher value;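 further: 0% = median of neutral control wells and 100% = median of positive control wells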

Q: Which CPE inhibition does the source give for `N#C[C@H]1[C@@H](c2ccccc2-c2ccc(F)cc2)[C@@H](CO)N1c1ncc(-c2ccccc2)s1` here?
A: The CPE inhibition was active: 22.8%.

Q: With `CCN(C(=O)C1CCCN1S(=O)(=O)c1cccc2nsnc12)c1ccccc1` (centres undefined) as the compound, how does the CPE inhibition read?
A: Its CPE inhibition is inconclusive: 25.2%.

Q: For `Cn1cnc(S(=O)(=O)N[C@@H]2CC[C@H](CC(=O)Nc3ccc(-c4ccccc4)cc3)O[C@@H]2CO)c1`, which CPE inhibition is on record?
A: The CPE inhibition was inconclusive: 20.7%.

Q: With `C[C@H](CO)N1C[C@H](C)[C@@H](CN(C)C(=O)Nc2ccccc2)Oc2ccc(NS(=O)(=O)c3ccc(Cl)cc3)cc2CC1=O` as the compound, how does the CPE inhibition read?
A: Its CPE inhibition is active: 58.3%.

Q: Which CPE inhibition does the source give for `CN1C(=O)c2cc(NC(=O)Nc3ccc(Cl)cc3)ccc2OC[C@@H]2O[C@H](CC(=O)NCCN3CCCCC3)CC[C@H]21` here?
A: Its CPE inhibition is inconclusive: 30.5%.

Q: Which CPE inhibition does the source give for `N#C[C@@H]1[C@H](c2ccccc2C2=CCCCC2)[C@H](CO)N1C(=O)Cc1ccncc1` here?
A: The CPE inhibition was inactive: 9.41%.

Q: For `N#C[C@H]1[C@@H](c2ccccc2)[C@H](CO)N1C(=O)CN1CCOCC1`, which CPE inhibition is on record?
A: The CPE inhibition was inconclusive: 22.5%.

Q: With `C[C@H](NC(=O)[C@H]1N[C@H]2c3ccc(-c4cccnc4)c(=O)n3C[C@H]2[C@@H]1CO)c1ccccc1` as the compound, how does the CPE inhibition read?
A: Its CPE inhibition is active: 117%.

Q: Which CPE inhibition does the source give for `CCS(=O)(=O)N1CCCCN2[C@H](CO)[C@@H](c3ccc(-c4ccc(C#N)cc4)cc3)[C@@H]2C1` here?
A: The CPE inhibition was active: 65%.

Q: Which CPE inhibition does the source give for `CCC(=O)N1CC2(C1)CN(Cc1cc(F)ccc1F)[C@H](CO)c1[nH]c3cc(OC)ccc3c12` here?
A: The CPE inhibition was inconclusive: 72.6%.

Q: With `CCS(=O)(=O)Nc1ccc2c(c1)C(=O)N(C)[C@H]1CC[C@H](CC(=O)N3CCCCC3)O[C@H]1CO2` as the compound, how does the CPE inhibition read?
A: The CPE inhibition was inactive: -4.62%.

Q: For `O=C(NCC1CC1)[C@H]1[C@H](CO)[C@H]2Cn3c(ccc(-c4ccccc4F)c3=O)[C@@H]1N2Cc1ccccc1`, which CPE inhibition is on record?
A: The CPE inhibition was inconclusive: 23.1%.

Q: For `O=C(Cc1cccc(NC(=O)C2CCN(S(=O)(=O)c3cccc([N+](=O)[O-])c3)CC2)c1)Nc1cccc(C(=O)N2CCCCC2)c1`, which CPE inhibition is on record?
A: The CPE inhibition was inconclusive: 73.5%.

Q: Which CPE inhibition does the source give for `COc1ccc(/C=C(\CC(=O)O)c2nc3ccccc3o2)cc1` here?
A: Its CPE inhibition is inactive: -3.32%.

Q: For `C[C@@H]1CN([C@H](C)CO)C(=O)c2cc(NC(=O)Nc3cccc4ccccc34)ccc2O[C@@H](C)CCCCO[C@@H]1CN(C)S(=O)(=O)c1ccc(F)cc1`, which CPE inhibition is on record?
A: Its CPE inhibition is inactive: -2.24%.

Q: Which CPE inhibition does the source give for `C[C@H](CO)N1C[C@H](C)[C@@H](CN(C)S(=O)(=O)c2ccccc2)Oc2c(NC(=O)C3CCOCC3)cccc2C1=O` here?
A: Its CPE inhibition is inconclusive: 47%.

Q: Which CPE inhibition does the source give for `C[C@@H]1CN([C@H](C)CO)S(=O)(=O)c2ccc(-c3ccc(C(=O)N(C)C)cc3)cc2O[C@@H]1CN(C)C(=O)Nc1ccccc1F` here?
A: Its CPE inhibition is inactive: 2.86%.

Q: Which CPE inhibition does the source give for `Cc1ccc(S(=O)(=O)Nc2ccc3c(c2)C(=O)N([C@H](C)CO)C[C@H](C)[C@H](CN(C)Cc2ccncc2)OCCCC[C@H](C)O3)cc1` here?
A: The CPE inhibition was inactive: -0.189%.

Q: Which CPE inhibition does the source give for `C[C@@H]1CN([C@@H](C)CO)C(=O)c2cc(-c3cncnc3)cnc2O[C@@H]1CN(C)C(=O)Cc1ccccn1` here?
A: The CPE inhibition was inactive: 10.3%.

Q: Which CPE inhibition does the source give for `CCOC(=O)N1CCN(Cc2c(NC(=O)c3ccco3)sc(C)c2C)CC1` here?
A: The CPE inhibition was inconclusive: 42.8%.

Q: For `COc1ccc2[nH]c(=O)c(CN(c3ccccc3OC)S(=O)(=O)c3ccccc3)cc2c1`, which CPE inhibition is on record?
A: The CPE inhibition was inactive: 10.5%.

Q: Which CPE inhibition does the source give for `COc1ccccc1NC(=O)COC(=O)c1ccc(S(=O)(=O)N2CCCCCC2)cc1` here?
A: The CPE inhibition was inconclusive: 35.3%.

Q: With `COCC(=O)Nc1ccc2c(c1)C(=O)N(C)C[C@H](OC)[C@@H](C)CN(C(=O)C1CCCC1)[C@H](C)CO2` as the compound, how does the CPE inhibition read?
A: Its CPE inhibition is inactive: 0.133%.

Q: Which CPE inhibition does the source give for `C[C@@H](NC(=O)c1nc[nH]c1C(=O)N(C)Cc1ccccc1)c1ccccc1` here?
A: Its CPE inhibition is active: 35.4%.

Q: For `COc1ccc(NC(=O)NNC(=O)COc2cc(C)c(Cl)c(C)c2)c(OC)c1`, which CPE inhibition is on record?
A: Its CPE inhibition is inconclusive: 37.5%.

Q: Which CPE inhibition does the source give for `Cn1cccc1Cc1nnc(SCC(=O)Nc2nccs2)n1CCc1ccccc1` here?
A: The CPE inhibition was inconclusive: 20%.

Q: For `N#C[C@@H]1[C@H](c2ccccc2-c2ccccc2)[C@@H](CO)N1C(=O)NC1CCCCC1`, which CPE inhibition is on record?
A: Its CPE inhibition is active: 45.1%.

Q: With `CCC(=O)Nc1ccc2c(c1)C(=O)N(C)[C@@H]1CC[C@H](CC(=O)NC3Cc4ccccc4C3)O[C@@H]1CO2` as the compound, how does the CPE inhibition read?
A: Its CPE inhibition is inconclusive: 63.3%.

Q: For `COc1ccc(Cl)cc1S(=O)(=O)N1CCN(C(=O)c2n[nH]c(=O)c3ccccc23)CC1`, which CPE inhibition is on record?
A: Its CPE inhibition is inconclusive: 57%.

Q: For `CN1C(=O)c2cc(NC(=O)c3ccc4c(c3)OCO4)ccc2OC[C@@H]2O[C@H](CC(=O)O)CC[C@H]21`, which CPE inhibition is on record?
A: Its CPE inhibition is inconclusive: 61.8%.

Q: Which CPE inhibition does the source give for `C[C@H]1CN([C@@H](C)CO)C(=O)c2cccc(NC(=O)C3CC3)c2O[C@H]1CN(C)Cc1ccccc1` here?
A: The CPE inhibition was inconclusive: 20.7%.

Q: Which CPE inhibition does the source give for `Cc1ccc(S(=O)(=O)N2CCN(C(=O)CCc3nc4ccccc4c(=O)[nH]3)CC2)c(C)c1` here?
A: Its CPE inhibition is inconclusive: 33%.

Q: Which CPE inhibition does the source give for `CCN(CC(=O)Nc1ccccc1OC)C(=O)/C=C/c1cccs1` here?
A: Its CPE inhibition is inconclusive: 23.6%.

Q: For `NC(=O)C1CCN(c2nc(-c3ccccc3Br)cs2)CC1`, which CPE inhibition is on record?
A: The CPE inhibition was active: 80.4%.

Q: With `OC(COC(c1ccc(Cl)cc1)c1ccc(Cl)cc1)CN1CCN(c2ccccn2)CC1` (centres undefined) as the compound, how does the CPE inhibition read?
A: The CPE inhibition was active: 45.1%.

Q: For `CCS(=O)(=O)N1CCCCN2[C@@H](CO)[C@@H](c3ccc(-c4ccc(C#N)cc4)cc3)[C@@H]2C1`, which CPE inhibition is on record?
A: The CPE inhibition was active: 45.4%.

Q: With `CC(=O)Nc1ccc(NC(=O)COC(=O)/C(=C/c2ccccc2)n2nnnc2C)cc1` as the compound, how does the CPE inhibition read?
A: The CPE inhibition was inconclusive: 47.4%.

Q: For `COc1ccc(CCN2C(=O)C(Oc3ccccc3C)C2c2ccc3c(c2)OCO3)cc1` (centres undefined), which CPE inhibition is on record?
A: Its CPE inhibition is inconclusive: 22.7%.

Q: For `O=c1[nH]c2ccccc2nc1-c1c[nH]c2ccccc12`, which CPE inhibition is on record?
A: The CPE inhibition was inactive: -2.27%.

Q: With `COc1ccccc1NC(=O)c1c([N+](=O)[O-])cnn1C` as the compound, how does the CPE inhibition read?
A: Its CPE inhibition is inconclusive: 34.2%.

Q: Which CPE inhibition does the source give for `OC(c1cccc(Cl)c1)c1nc(-c2cnc3ccccc3c2)cs1` (centres undefined) here?
A: The CPE inhibition was inconclusive: 23.6%.

Q: Which CPE inhibition does the source give for `C[C@@H]1CN([C@H](C)CO)C(=O)c2cc(NS(=O)(=O)c3cccs3)ccc2O[C@@H](C)CCCCO[C@@H]1CN(C)S(=O)(=O)c1ccc(Cl)cc1` here?
A: The CPE inhibition was active: 22.8%.

Q: With `Cc1ccc(C(=O)NNC(=O)c2ccccc2)cc1S(=O)(=O)N1CCCCC1` as the compound, how does the CPE inhibition read?
A: The CPE inhibition was inconclusive: 20.1%.

Q: Which CPE inhibition does the source give for `COc1ccccc1CNC(=O)C1CCN(S(=O)(=O)c2ccc3c(c2)C(C)(C)C(=O)N3C)CC1` here?
A: The CPE inhibition was inconclusive: 20.3%.
